These are yes or no findings as the source states them, for the method shown. Some binding calls cover weakened binding; strength is not graded here.
Target: Cynomolgus monkey PSCA (Cynomolgus monkey)
Assay: FACS on 293T cells expressing Cynomolgus monkey PSCA, anti-hIgG-PE

binding: binds
B1: Ha1-1.16 (antibody, V domains shown)
VH: QVQLQQSGPGLVKPSQTLSLTCAISGDSVSSNSAAWNWIRQSPSRGLEWLGRTYYRSKWYNGYAVSVKSRMTINPDTSKNQFSLQLNSVTPEDTAVYYCARERLGELYGMDVWGQGTTVTVSS
VL: QLTQSPDSLAVSLGERATINCKSSQNILYRSSKKNHLVWYQQKPGQPPKLLIYWASTRESGVPARFSGSGSGTDFTLTISTLQAEDVAVYYCQQYYSTPPTFGQGTRLEIKR
